No constants are given. Whether binding was seen depends on the method and setting. Some results given as binding are weak or reduced against the parent protein; the word gives no strength.
Columns and labels:
[1] = biological target: human Na+/taurocholate co-transporting polypeptide, wild type, FLAG-tagged, on NTCPwt-HEK293 cells (human) (UniProt Q14973); experiment: competition for binding of a fluorescent peptide to cells, plate reader; NTCP-HEK293 cells preincubated 20 minutes at 37 °C with unlabelled wild-type or W41G myr-preS1 peptide at 250, 500 or 1000 nM, then myr-preS1-AX568 10 nM for 20 minutes at 37 °C; Spark reader; only the binder purified
[2] = biological target: human Na+/taurocholate co-transporting polypeptide, wild type, FLAG-tagged, on NTCPwt-HEK293 cells (human) (UniProt Q14973); experiment: fluorescence microscopy of a labelled peptide bound to cells; myr-preS1-AX568 at 10 nM for 10 minutes at 37 °C on tetracycline-induced NTCPwt-HEK293 and NTCP-Y146A/F274A-HEK293 cells; washed, fixed, nuclei stained with Hoechst 33342; only the binder purified
[3] = biological target: human Na+/taurocholate co-transporting polypeptide, wild type, FLAG-tagged, on NTCPwt-HEK293 cells (human) (UniProt Q14973); experiment: binding of a fluorescent peptide to cells, plate reader; only the binder purified

Chains of the proteins cited; added tags and fusions are not shown.
UniProt Q14973: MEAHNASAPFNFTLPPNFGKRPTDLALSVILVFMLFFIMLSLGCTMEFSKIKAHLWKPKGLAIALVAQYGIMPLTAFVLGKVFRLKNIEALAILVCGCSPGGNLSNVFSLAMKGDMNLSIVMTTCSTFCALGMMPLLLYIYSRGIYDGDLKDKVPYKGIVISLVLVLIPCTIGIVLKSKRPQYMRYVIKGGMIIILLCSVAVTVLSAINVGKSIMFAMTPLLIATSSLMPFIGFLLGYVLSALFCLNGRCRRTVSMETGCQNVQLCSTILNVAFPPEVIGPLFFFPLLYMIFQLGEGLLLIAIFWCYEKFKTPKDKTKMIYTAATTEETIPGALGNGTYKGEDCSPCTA

Measured: binding

C-terminally Alexa 568 fluorophore-coupled myr-preS1 peptide, amino acids 2 to 48 of the large HBV g (from UniProt P03138 2-48)
binds: all assays above

Source: article PMC12597529, “Interaction between W41 of the hepatitis B virus preS1 surface peptide and Y146/F274 of the cellular receptor molecule Na^+/taurocholate co-transporting polypeptide is essential for virus entry” (Molecular Pharmacology, 2025)
